The record followed here is patent US20030232013A1 (priority 2002, published 2003).

The nature of the data set: general procedure: Fmoc solid-phase peptide synthesis; Fmoc-Phe-Wang resin; HBTU. Particulars: for oxidative folding yield: oxidative folding step.

Substance DOTA-6-Ahx-Phe^19-STh came in with an isolated yield (whole synthesis, overall, starting from resin, scale of the general procedure 25 μmol) of 1.5%.
Substance “DOTA-[Cys(Acm)^7,15, Cys(tBu)^10,18]-Phe^19-STh” had an oxidative folding yield of 29%.
The substance DOTA-[Cys(tBu)^10,18]-Phe^19-STh gave an oxidative folding yield of 62%.
